This note sets out measurements from publication PMC5700522.

Protein sequences can lack the tags named with them.

Common to all, as to test: EMSA
Series [1] deals with T1, PoxNsdD335-494 (Penicillium oxalicum HP7-1) (UniProt A0A2H4WUZ6).
T1 sequence (looked up): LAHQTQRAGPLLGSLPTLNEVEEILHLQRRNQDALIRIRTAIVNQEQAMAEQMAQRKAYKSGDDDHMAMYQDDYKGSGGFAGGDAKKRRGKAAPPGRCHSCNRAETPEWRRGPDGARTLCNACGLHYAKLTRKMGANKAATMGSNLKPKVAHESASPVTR
As to conditions: 20 mM Tris-HCl pH 8.0, 50 mM KCl, 5% glycerol, 1 mM DTT, 0.1 mg/mL BSA, 40 ng FAM probe, 0-4.8 ug protein, 4% PAGE in TAE, temperature not stated, recombinant protein, residues 335-494, protein details: TRX-His-S (pET-32a(+)), label: FAM on reverse primer, probe letters rebuilt from the primers and the genome.

Series [2] concerns the target T2, PoxCxrB181-330 (Penicillium oxalicum HP7-1) (UniProt A0A2H4WUZ7).
T2 sequence (looked up, limits assumed): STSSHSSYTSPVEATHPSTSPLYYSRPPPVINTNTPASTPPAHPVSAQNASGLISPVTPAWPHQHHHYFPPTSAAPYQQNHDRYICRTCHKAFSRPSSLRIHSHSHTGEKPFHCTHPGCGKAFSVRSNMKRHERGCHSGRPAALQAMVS
The conditions noted are these: 20 mM Tris-HCl pH 8.0, 50 mM KCl, 5% glycerol, 1 mM DTT, 0.1 mg/mL BSA, 40 ng FAM probe, 0-4.8 ug protein, 4% PAGE in TAE, temperature not stated, recombinant protein, protein details: TRX-His-S (pET-32a(+)), label: FAM on reverse primer, probe letters rebuilt from the primers and the genome.

Series [3] concerns the target T3, PoxCxrA17-150 (Penicillium oxalicum HP7-1) (UniProt A0A2H4WV05).
T3 sequence (looked up): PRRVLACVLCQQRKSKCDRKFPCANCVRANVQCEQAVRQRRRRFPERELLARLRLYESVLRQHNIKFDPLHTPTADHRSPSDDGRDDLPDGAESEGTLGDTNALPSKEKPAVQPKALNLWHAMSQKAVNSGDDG
As to conditions: unlabelled probe competes; 20 mM Tris-HCl pH 8.0, 50 mM KCl, 5% glycerol, 1 mM DTT, 0.1 mg/mL BSA; 40 ng FAM probe, 0-4.8 ug protein; 4% PAGE in TAE; temperature not stated; recombinant protein; residues 17-150; protein details: TRX-His-S (pET-32a(+)); label: FAM on reverse primer; probe letters rebuilt from the primers and the genome.

Take “CGGTCACATTTGCTCTTGCGTTGCTGACACAACACGCATGCCAGCACGCGTCGGGGCTTGACGGTGGTGGCGGTCGGATCGGATGTAGAGATCGGCGTGGTCATGGCCGACGACTTGAGAAACTATTGATCCAGTTGCAAGTGATTAAGTGATTGACTACGGGATAGAAGAGTTGCTCCTGAGTCCGAGTGCCCGAAGCCCGAGGATTTTGGGCGGAAAAAAAAAGGAAAGAAAGGAAGAAAGAATGAATGAAAGGGCAAGTGTACCATAGAGTGTGGGGGCGGGGGGACAGGCGGGTTTTAGAAAGACCGACGAACCACGTTTGCATCCTGGTACTCGCACTTTCTAACCCCCGATCACTGCAGTCGCGAACTTGCTAATCCCCGGCTGGATGGCCAGCTTCTTCGATATGCTGCTACACAGTGCGAGATCGTCCAGCCATGTTTGCCCTCCCGATAGGCCCCTTTATAAGCCAGAGCTTTCCTCCTGATCTCCCCTGGGTTAAAAAAGGACTTTCCTTGTGCATTGGTGACCGATCGATAGCTGCTTGAGCTGTGCCGCCCTGTATTTCCACAATGCCTTCATCACGCA (double strand) [PoxCxrA promoter (NsdD probe)]”: the binding result in series [1] was “binds”.

For the sequence “TGGCAGACGCAGTCACGCTAGTGAGGATTCAAAAGCACGTGTGACTTATTCAGCGATGCAACTTCCGGCTTCACCCTCGGCCGGGGTCCCATTTCCGTGTCTAATGCAGCCATTTGCGACTCTTCAGTGCTCGATCTGACCATTTGACCCCAGTGGCGCTGCAGAATAGGTCTGTGCTTGACCTGATACATGGACCCACGCTCAAGTTCATGTCTGCAGAATTCTCCTGAATGGATGAGGATCTGCTCGGTTGAATCTCCGGTCAGAAACCGGACAGAGGCACAGTTGCTGTGGAGTCTCTTGGCCGGTTAGGAGTGCTATAAGATGGCGACAGAAGTCGGCCGAGGAGGAAATTCTCGTTTCCATCCACCGAGTCTGCATACATTGGATTTCGAGTTGTCAAAATGAGATACGATTTGATTCTTGCCGCCGGCGCCACTCTGGCACTGGCCGTGCCCCAGGGCATCTCCAAGCGGGCCGGAGGCTTTGTCTGTAAGTTG (double strand) [POX01166/Cel5B promoter (CxrB and NsdD probe)]”, the binding result in series [1] (unlabelled probe competes) and in series [2] (unlabelled probe competes) was “binds” throughout.

Take “AGGTTCAAGTTGGCTTACCAGCTGTACCATTGACTATCAATCATCTGCTCGGATGCACTACGATATACGGTACCGCTACTTTGGGCTCCAGTGCTACTACGACGAGGCCAAATACACATGGGTAGGATTCAAACGGTAAAAATGGAGACGAGGCGTCCAGTCAGTCCGACCTGCTGAATCCCCAACTGATCGTGCGGTTTTCCTTCTCGGGAAGTCGACGATCCTTGCCGTTTCTCTGGTGTGGTCTCCACATCTTCTGCGTGTTTCTCCCCGCAAGAAAGGCAATTACAGGTGAGGAGTCCAAGGTCAGGGTTCAGTTCCTGACATCAAAAAAGGAAATTACGTGCAATAGCAATCAATTCCCCCCACACCCCCCACCAGACTGACTAGATGATCAGTACCCCTTTCATCGCTTTAAATACAGCTCCGTCTCTCCTCTGCTCTCTCAGAAGGACTAATCTTTTTTCAGGCCCTTCAGCGCAGAGTTGTGTCCCAGCTTCGCCTTTTGCAGAACAACCAAGGGCTGTGGACGAATCCATCCTGTTCAGTCGTCCTTTGACTTTCGAGGAATTGCCATTGAACAAGCGTCCGTTCATCTG (double strand) [POX06835/Bgl3A promoter (CxrA and CxrB probe)]”: the binding result in series [2] (unlabelled probe competes) and in series [3] was “binds” each time.

Take “GGATTCAAACGGTAAAAATGGAGACGAGGCGTCCAGTCAGTCCGACCTGCTGAATCCCCAACTGATCGTGCGGTTTTCCTTCTCGGGAAGTCGACGATCCTTGCCGTTTCTCTGGTGTGGTCTCCACATCTTCTGCGTGTTTCTCCCCGCAAGAAAGGCAATTACAGGTGAGGAGTCCAAGGTCAGGGTTCAGTTCCTGACATCAAAAAAGGAAATTACGTGCAATAGCAATCAATTCCCCCCACACCCCCCACCAGACTGACTAGATGATCAGTACCCCTTTCATCGCTTTAAATACAGCTCCGTCTCTCCTCTGCTCTCTCAGAAGGACTAATCTTTTTTCAGGCCCTTCAGCGCAGAGTTGTGTCCCAGCTTCGCCTTTTGCAGAACAACCAAGGGCTGTGGACGAATCCATCCTGTTCAGTCGTCCTTTGACTTTCGAGGAATTGCCATTGAACAAGCGTCCGTTCATCTG (double strand) [POX06835/Bgl3A promoter (NsdD probe)]”: in series [1] (unlabelled probe competes), the binding result was “binds”.

For the sequence “CGGTCACATTTGCTCTTGCGTTGCTGACACAACACGCATGCCAGCACGCGTCGGGGCTTGACGGTGGTGGCGGTCGGATCGGATGTAGAGATCGGCGTGGTCATGGCCGACGACTTGAGAAACTATTGATCCAGTTGCAAGTGATTAAGTGATTGACTACGGGATAGAAGAGTTGCTCCTGAGTCCGAGTGCCCGAAGCCCGAGGATTTTGGGCGGAAAAAAAAAGGAAAGAAAGGAAGAAAGAATGAATGAAAGGGCAAGTGTACCATAGAGTGTGGGGGCGGGGGGACAGGCGGGTTTTAGAA (double strand) [PoxCxrA promoter (CxrB probe)]”, the binding result in series [2] is “binds”.

As to “CCTCGGTCCGCATTTGGCAATTGTCCGTGTACAAGCTTTTCGGGTTCCACATCCGTGGCGGGTGACCCGAGGGTTTGATGCTTGGAGAGGTATTTTCGGCTCTTCAGGACACGCAGGAGGCCCATCACTCCCTGGATCGTATGGAGTTTGATGGACAGGTGAGATGAGATGGAAGCCCTGCAGAAGCCCGGTGGGGGACCCCACCTTTCAGGGTTCTTTAGGCTGTTTCAGAGGCCACAGAAGGGACAGGATCAATGATCTTAGTAAGATTGATGGCGGTTTTCTTGTTTCGACTGCTGTTTCAAAGACAGACATGCAGGCATTCGGGTTAATGGGCTCAATTTAAGGCTATTTGCTTGTCCCGATCGTGTAAGCACTAGCCAAGGGCTTAGCAGTGAAGGCCAAGAAAATCAGCATATAAGATGGGTTTGGTCTCGATGTTCTGATGTGTCTCAGGCATATACGACTGTTTTTGTTTTTTTGGTTCAGAGCTCAGACTACTCGACACATTCGAACCACATCGTTCCTTTGAATAAAACA (double strand) [POX06783/Xyn11A promoter]”, the binding result in series [1] (unlabelled probe competes), in series [2] (unlabelled probe competes) and in series [3] was “binds” each time.
